Library screening results

Chains of the proteins cited; added tags and fusions are not shown.
UniProt E9BF75, entry or part of it: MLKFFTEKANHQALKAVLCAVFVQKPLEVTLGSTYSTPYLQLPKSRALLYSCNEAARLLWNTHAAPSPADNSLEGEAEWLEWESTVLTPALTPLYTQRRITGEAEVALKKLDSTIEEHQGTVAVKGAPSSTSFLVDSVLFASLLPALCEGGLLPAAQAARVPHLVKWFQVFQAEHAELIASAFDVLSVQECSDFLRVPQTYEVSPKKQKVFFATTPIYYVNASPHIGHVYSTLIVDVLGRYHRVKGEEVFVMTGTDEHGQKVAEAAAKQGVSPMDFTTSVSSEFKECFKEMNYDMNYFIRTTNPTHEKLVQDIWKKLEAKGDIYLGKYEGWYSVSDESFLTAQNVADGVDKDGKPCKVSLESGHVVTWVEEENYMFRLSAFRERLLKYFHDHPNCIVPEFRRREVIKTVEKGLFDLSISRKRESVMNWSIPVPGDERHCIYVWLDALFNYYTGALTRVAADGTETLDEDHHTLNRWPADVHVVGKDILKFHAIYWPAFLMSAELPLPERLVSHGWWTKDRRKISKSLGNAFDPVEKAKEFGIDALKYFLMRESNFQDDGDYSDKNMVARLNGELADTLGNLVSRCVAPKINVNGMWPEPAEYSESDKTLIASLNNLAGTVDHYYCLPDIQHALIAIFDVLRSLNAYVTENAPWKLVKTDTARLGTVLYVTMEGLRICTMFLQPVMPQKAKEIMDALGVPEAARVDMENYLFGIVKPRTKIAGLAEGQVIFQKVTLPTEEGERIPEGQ

Data taken from ChEMBL document CHEMBL3988442, “University of Dundee, Small-Polar-MMV Screening Library” (2021).

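Primary screen of methionyl-tRNA synthetase; the read-out is not stated. Target: Methionyl-tRNA synthetase (putative), Leishmania donovani (UniProt E9BF75). The test concentration is not given. The values are filed as inhibition. Of about 68,000 compounds tested this way, about 24 (0.035%) reached 50% or more in at least one test.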

Results are percentages, as filed. How 0% and 100% were set is not recorded. Most values in the screen are low, and negative values occur. This is an unselected part of the compounds tested.

- Cc1ncc(Cl)c(C(=O)N2CC(=O)N(C)c3ccccc32)n1 | 14.95%
- Cc1nn(-c2ccc(C(=O)O)cc2)c2c1C(C(C)C)SCC(=O)N2 (stereo not shown) | 16.71%
- Cc1cccc2[nH]c(C3CCN(C(=O)c4c[nH]c(=O)[nH]c4=O)CC3)nc12 | 9.365%
- Cc1nccn1-c1ccc(=O)n(CCNC(=O)c2cccs2)n1 | 19.78%
- CC(C)C(=O)N1CCc2c(CN(C)Cc3ccco3)cncc2C1 | 16.16%
- Cc1cc(CN2CC[C@H]3C[C@H](C(=O)Nc4cccnc4C)O[C@@H]3C2)no1 | 0.3175%
- Cc1cccc(OCCN2CCCC(c3cc(C(N)=O)[nH]n3)C2)c1 (stereo not shown) | 15.32%
- O=C(Cc1ccc(CO)cc1)N1CCN(CC2CC2)[C@@H]2CS(=O)(=O)C[C@@H]21 | 1.873%
- CCCn1cc(NC(=O)c2cccnc2O)ccc1=O | 4.57%
- CCc1cnc(CCNC(C)CC(=O)Nc2cccc(C)c2C)s1 (stereo not shown) | 19.09%
- CO[C@H]1CN(Cc2ccc(C)o2)[C@@H]2CCCO[C@H]12 | 7.246%
- CN(Cc1ccco1)[C@@H]1CN(C(=O)c2ccnnc2)C[C@@H]2CCCO[C@@H]21 | 12.5%
- Cc1cnn(-c2ccc(C(=O)N3CCCC(n4ccnc4C)C3)cc2)c1 (stereo not shown) | 1.397%
- COc1cc(C)ccc1C(=O)N1C[C@@H](CN(C)CCO)[C@@H](CO)C1 | 5.674%
- Cc1oc2c(c1C(=O)N1CC[C@H](O)[C@]3(CCCO3)C1)CCCC2 | 17.08%
- Clc1ccc(CN2CCCCC2Cn2cncn2)c2ncccc12 (stereo not shown) | 27.62%
- CC1=NOC2(CCN(Cc3c[nH]c4ccccc34)CC2)C1 | 8%
- O=C(CCN1CCOCC1)NC1CCCN(CC2CCCCC2)C1 (stereo not shown) | -4.092%
- N#CCCCOc1cccnc1NC(=O)CC1CCCCC1 | 7.082%
- CC(C)CNC(=O)c1cn(C(C)C)cc2c(=O)[nH]nc1-2 | 15.45%
- Cn1c2c(c(=O)n1C)CN(C(=O)c1ccsc1)CCC2 | 12.06%
- Cc1ccc(=O)n(CC2(O)CCN(Cc3c(F)cccc3F)CC2)n1 | 7.812%
- Cc1ccc(C)c(NC(=O)N2CCC3(CC2)NC(=O)CC3C(=O)O)c1 (stereo not shown) | 17.38%
- NC(=O)NC(CC(=O)N1CCc2sccc2C1)c1ccccc1F (stereo not shown) | 4.334%
- Cc1cc(C)n(C2CCN(c3ncnc4sc5c(c34)CCNC5)C2)n1 (stereo not shown) | 15.55%
- CCC(=O)N1CCC(c2ncc(C(=O)Nc3ccccc3)c(C)n2)C1 (stereo not shown) | 14.53%
- CC(C)=CCN1CCN(Cc2cc(C)n[nH]2)CC1CCO (stereo not shown) | 8.303%
- CCCNC(=O)c1cn(C(C)(C)C)c2ncccc12 | 14.17%
- CCOc1cc(C)nc(N2CCN(C(=O)CN(C)C3CC3)CC2)n1 | 11.17%
- CN1[C@H](CN2CCCC2)C[C@@H]2CN(C(=O)Cc3cccs3)CC[C@@H]21 | 3.03%
- NC(=O)c1cccc(OCC(=O)N2CCCC(n3cccn3)C2)c1 (stereo not shown) | 11.34%
- COCCN1C(=O)CCC12CCCN(C(=O)CC1CC1)CC2 (stereo not shown) | 16.35%
- CN(Cc1noc(C2CC2)n1)C1CCN(CC(=O)N2CCOCC2)C1 (stereo not shown) | 4.749%
- O=c1oc(-c2cccs2)nn1CC(O)c1ccccc1F (stereo not shown) | 4.775%
- CCOc1ccc(NC(=O)Nc2cc(N3CCCCC3)ncn2)cc1 | 8.633%
- CC(C)[C@H](NC(=O)Cn1nc2c(cc1=O)CCCC2)C(=O)O | 14.73%
- Cc1cc2n(n1)CC(CNCc1ccc(N3CCOCC3)nc1)CN2 (stereo not shown) | 22.95%
- CC(C)Oc1ncnc2c1CCN(C(=O)c1cccn1C)CC2 | 3.833%
- Cn1ccc(C(=O)N2C[C@@H]3CCN(c4cnccn4)C[C@@H]3C2)n1 | 14.01%
- CC(C)N1c2sc(-c3ccsc3)nc2CC1C(=O)NC1CCCC1 (stereo not shown) | -5.764%
- c1cncc(Cc2nnc3n2CCN(CC2CCCNC2)CC3)c1 (stereo not shown) | 15.22%
- Cc1ccccc1NS(=O)(=O)c1ccc(C(=O)O)cc1F | 2.821%
- Cc1cccc(CN2CC[C@H]3[C@@H]2CC(=O)N3CC2CC2)n1 | 14.01%
- CCn1ccnc1CN1CCN(CC(O)c2cccc(F)c2)CC1 (stereo not shown) | 15.47%
- COc1cc(CCC(=O)N2CCC(c3cc4ncccc4[nH]3)CC2)on1 | 2.812%